Binding data for one molecule are collected here from PMC10585713.

Results are given in words; binding and its absence hold for the method and conditions named. Tags and fused reporters may be left off the sequences shown.

The assay deals with Vitis vinifera B-box protein 44 (VvBBX44), fused to the Gal4 DNA-binding domain (Vitis vinifera 'Jingxiu'). Description: two-hybrid; Clontech yeast two-hybrid system; AD-VvMYBA1 (pGADT7) with BD-VvBBX44 (pGBKT7); growth tested on SD/-Leu/-Trp and on SD/-Leu/-Trp/-His/-Ade with 40 mg/L X-alpha-Gal and 200 ng/mL AbA.

B1: VvMYBA1 (Vitis vinifera MYBA1), fused to the Gal4 activation domain (protein, UniProt Q6L9M9 1-250)
chain: MESLGVRKGAWIQEEDVLLRKCIEKYGEGKWHLVPLRAGLNRCRKSCRLRWLNYLKPDIKRGEFALDEVDLMIRLHNLLGNRWSLIAGRLPGRTANDVKNYWHSHHFKKEVQFQEEGRDKPQTHSKTKAIKPHPHKFSKALPRFELKTTAVDTFDTQVSTSRKPSSTSPQPNDDIIWWESLLAEHAQMDQETDFSASGEMLIASLRTEETATQKKGPMDGMIEQIQGGEGDFPFDVGFWDTPNTQVNHLI
Regarding B1, the binding result is “no binding”.
